Data on one molecule can be found in ChEMBL document CHEMBL3853270, “Influence of Birch Bark Triterpenes on Keratinocytes and Fibroblasts from Diabetic and Nondiabetic Donors” (2016).

Common to all, as to type: functional
Test [1] has as its system Keratinocyte. The test can be described thus: Effect on pro-inflammatory related gene expression in non-diabetic young human primary keratinocytes assessed as IL1B mRNA levels at 1.96 uM after 6 hrs by qPCR analysis. For orientation: In qPCR the cycle at which signal appears reflects the starting amount.
Test [2] concerns Keratinocyte. The test can be described thus: Effect on antiinflammatory related gene expression in non-diabetic young human primary keratinocytes assessed as NFKBIA mRNA levels at 1.96 uM after 6 hrs by qPCR analysis.
In test [3] the test system is Keratinocyte. The test can be described thus: Effect on transcription factor related gene expression in non-diabetic young human primary keratinocytes assessed as JUN mRNA levels at 1.96 uM after 6 hrs by qPCR analysis.
Test [4] deals with Keratinocyte. As to the kind of experiment: Effect on cellular connection related gene expression in diabetic adult human primary keratinocytes assessed as CLDN4 mRNA levels at 1.96 uM after 6 hrs by qPCR analysis.
Test [5] deals with Keratinocyte. As to the kind of experiment: Effect on ECM related gene expression in diabetic adult human primary keratinocytes assessed as FBN1 mRNA levels at 1.96 uM after 6 hrs by qPCR analysis.
Test [6] relates to Keratinocyte. The test can be described thus: Effect on ECM related gene expression in non-diabetic young human primary keratinocytes assessed as FBN1 mRNA levels at 9.81 uM after 6 hrs by qPCR analysis.
Test [7] concerns Keratinocyte. As to the kind of experiment: Effect on transcription factor related gene expression in non-diabetic adult human primary keratinocytes assessed as JUN mRNA levels at 9.81 uM after 6 hrs by qPCR analysis.
Test [8] has as its system Keratinocyte. The test can be described thus: Effect on growth factor related gene expression in diabetic adult human primary keratinocytes assessed as PDGFB mRNA levels at 9.81 uM after 6 hrs by qPCR analysis.
Test [9] relates to Fibroblast. The test can be described thus: Effect on pro-inflammatory related gene expression in non-diabetic adult human primary fibroblasts assessed as IL1B mRNA levels at 1.96 uM after 6 hrs by qPCR analysis.
Test [10] deals with Fibroblast. As to the kind of experiment: Effect on MMP1 mRNA expression levels in diabetic adult human primary fibroblasts at 1.96 uM after 6 hrs by qPCR analysis.
Test [11] concerns Fibroblast. As to the kind of experiment: Effect on antioxidant related gene expression in non-diabetic adult human primary fibroblasts assessed as NFE2L2 mRNA levels at 9.81 uM after 6 hrs by qPCR analysis.

The structures appear in SMILES notation. The source gives many values for each of these; only a part stands here.

For `C=C(C)[C@@H]1CC[C@]2(CO)CC[C@]3(C)[C@H](CC[C@@H]4[C@@]5(C)CC[C@H](O)C(C)(C)[C@@H]5CC[C@]43C)[C@@H]12` [BETULIN], the “fold change (FC)” value in [1] came out at 0.8; in test [2], 1.5; in test [3] it was 1.5; in test [4], 1.3; in [5] it was 1.3; in test [6], 1.3. Also, the “fold change (FC)” value is on record as 1.9 in test [7]; 1.4 in [8]; 159 in [9]; 0.6 in [10]; 1.7 in [11].
